Assay results as given in article doi:10.1101/2024.07.10.602929.
These are yes or no findings as the source states them, for the method shown. Some results given as binding are weak or reduced against the parent protein; the word gives no strength.

Protein sequences, listed by entry. Tags and fused reporters are not part of them. Lines headed by an entry give the natural chain unless they say otherwise; changes in a name come on top.
UniProt Q15154: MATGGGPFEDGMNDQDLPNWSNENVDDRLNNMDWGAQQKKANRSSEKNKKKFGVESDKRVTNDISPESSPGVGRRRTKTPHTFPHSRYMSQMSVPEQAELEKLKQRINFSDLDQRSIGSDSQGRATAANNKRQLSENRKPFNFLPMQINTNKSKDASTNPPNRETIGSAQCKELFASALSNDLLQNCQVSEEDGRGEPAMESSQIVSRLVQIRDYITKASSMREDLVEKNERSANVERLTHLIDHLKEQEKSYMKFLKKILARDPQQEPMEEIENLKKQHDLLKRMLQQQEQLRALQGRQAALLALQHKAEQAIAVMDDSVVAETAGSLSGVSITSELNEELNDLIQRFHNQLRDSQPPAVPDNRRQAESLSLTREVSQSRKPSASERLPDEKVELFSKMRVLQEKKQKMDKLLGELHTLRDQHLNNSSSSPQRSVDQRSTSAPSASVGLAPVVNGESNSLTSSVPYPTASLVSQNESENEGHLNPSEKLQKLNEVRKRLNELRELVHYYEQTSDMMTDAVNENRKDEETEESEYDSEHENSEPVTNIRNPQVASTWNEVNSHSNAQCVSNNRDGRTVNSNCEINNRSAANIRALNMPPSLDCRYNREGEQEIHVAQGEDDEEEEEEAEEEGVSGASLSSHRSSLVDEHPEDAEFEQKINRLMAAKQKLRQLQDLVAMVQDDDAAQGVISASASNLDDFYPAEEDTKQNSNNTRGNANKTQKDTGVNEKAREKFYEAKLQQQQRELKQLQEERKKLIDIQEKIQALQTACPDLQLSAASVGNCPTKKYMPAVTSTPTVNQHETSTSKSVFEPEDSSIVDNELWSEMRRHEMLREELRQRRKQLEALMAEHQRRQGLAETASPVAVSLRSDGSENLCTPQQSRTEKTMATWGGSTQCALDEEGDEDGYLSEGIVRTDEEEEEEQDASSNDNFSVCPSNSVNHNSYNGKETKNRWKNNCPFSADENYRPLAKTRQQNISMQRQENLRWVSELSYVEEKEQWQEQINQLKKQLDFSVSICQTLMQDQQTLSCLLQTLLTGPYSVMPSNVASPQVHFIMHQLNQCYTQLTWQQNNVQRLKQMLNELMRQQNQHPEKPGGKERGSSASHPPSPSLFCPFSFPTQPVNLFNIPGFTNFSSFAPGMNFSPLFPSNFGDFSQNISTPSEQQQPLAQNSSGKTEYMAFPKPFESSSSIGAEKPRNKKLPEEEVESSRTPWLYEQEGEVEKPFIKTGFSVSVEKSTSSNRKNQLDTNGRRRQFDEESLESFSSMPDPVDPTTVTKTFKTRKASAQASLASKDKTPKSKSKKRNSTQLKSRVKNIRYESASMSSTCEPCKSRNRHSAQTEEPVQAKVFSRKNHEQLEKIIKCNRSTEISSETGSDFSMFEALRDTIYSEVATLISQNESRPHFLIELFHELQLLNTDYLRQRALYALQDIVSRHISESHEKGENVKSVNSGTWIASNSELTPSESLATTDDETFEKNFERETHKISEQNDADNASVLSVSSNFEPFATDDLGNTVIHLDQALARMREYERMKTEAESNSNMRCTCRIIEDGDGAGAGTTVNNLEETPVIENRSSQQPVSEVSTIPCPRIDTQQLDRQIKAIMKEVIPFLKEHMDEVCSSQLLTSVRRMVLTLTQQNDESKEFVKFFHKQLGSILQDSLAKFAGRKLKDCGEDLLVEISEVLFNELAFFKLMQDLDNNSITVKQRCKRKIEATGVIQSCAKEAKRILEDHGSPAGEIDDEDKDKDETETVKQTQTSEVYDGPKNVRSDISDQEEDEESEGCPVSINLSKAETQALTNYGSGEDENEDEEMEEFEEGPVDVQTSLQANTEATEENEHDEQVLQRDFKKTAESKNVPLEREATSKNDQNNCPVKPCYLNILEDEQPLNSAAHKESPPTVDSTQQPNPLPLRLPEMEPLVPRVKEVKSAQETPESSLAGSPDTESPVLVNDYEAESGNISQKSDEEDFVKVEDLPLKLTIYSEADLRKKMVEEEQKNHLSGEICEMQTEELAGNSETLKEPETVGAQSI
UniProt P60520: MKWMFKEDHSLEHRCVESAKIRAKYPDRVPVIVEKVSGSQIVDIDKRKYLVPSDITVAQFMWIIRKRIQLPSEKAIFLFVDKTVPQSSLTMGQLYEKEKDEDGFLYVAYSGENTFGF

Target: PCM1 LIR peptide (pericentriolar material 1 protein residues 1954-1968), N-terminally biotinylated (UniProt Q15154)
Assay: BLI

GABARAPL2 (from UniProt P60520 1-117)
binding: binds

LC3A (from UniProt Q9H492 1-121)
binding: binds
